Reference: paper PMC7588095
No constants are given. Whether binding was seen depends on the method and setting. In cells and extracts the contact can be indirect. Some results given as binding are weak or reduced against the parent protein; the word gives no strength. Tags and fused reporters may be left off the sequences shown.

Assays:
[1] = target: T1, FLAG-tagged KDM2A-LF (full-length KDM2A lysine demethylase) (UniProt Q9Y2K7); assay: co-IP; myc-TCF7L1 and FLAG-KDM2A/B isoforms co-expressed in HEK293T; whole cell extract (300 mM NaCl, 0.5% NP-40) diluted to 150 mM NaCl and 0.1% NP-40; 500 ug extract rotated overnight at 4 C with 2.5 ug anti-FLAG antibody, Dynabeads Protein G; western blot with anti-myc
T1 sequence: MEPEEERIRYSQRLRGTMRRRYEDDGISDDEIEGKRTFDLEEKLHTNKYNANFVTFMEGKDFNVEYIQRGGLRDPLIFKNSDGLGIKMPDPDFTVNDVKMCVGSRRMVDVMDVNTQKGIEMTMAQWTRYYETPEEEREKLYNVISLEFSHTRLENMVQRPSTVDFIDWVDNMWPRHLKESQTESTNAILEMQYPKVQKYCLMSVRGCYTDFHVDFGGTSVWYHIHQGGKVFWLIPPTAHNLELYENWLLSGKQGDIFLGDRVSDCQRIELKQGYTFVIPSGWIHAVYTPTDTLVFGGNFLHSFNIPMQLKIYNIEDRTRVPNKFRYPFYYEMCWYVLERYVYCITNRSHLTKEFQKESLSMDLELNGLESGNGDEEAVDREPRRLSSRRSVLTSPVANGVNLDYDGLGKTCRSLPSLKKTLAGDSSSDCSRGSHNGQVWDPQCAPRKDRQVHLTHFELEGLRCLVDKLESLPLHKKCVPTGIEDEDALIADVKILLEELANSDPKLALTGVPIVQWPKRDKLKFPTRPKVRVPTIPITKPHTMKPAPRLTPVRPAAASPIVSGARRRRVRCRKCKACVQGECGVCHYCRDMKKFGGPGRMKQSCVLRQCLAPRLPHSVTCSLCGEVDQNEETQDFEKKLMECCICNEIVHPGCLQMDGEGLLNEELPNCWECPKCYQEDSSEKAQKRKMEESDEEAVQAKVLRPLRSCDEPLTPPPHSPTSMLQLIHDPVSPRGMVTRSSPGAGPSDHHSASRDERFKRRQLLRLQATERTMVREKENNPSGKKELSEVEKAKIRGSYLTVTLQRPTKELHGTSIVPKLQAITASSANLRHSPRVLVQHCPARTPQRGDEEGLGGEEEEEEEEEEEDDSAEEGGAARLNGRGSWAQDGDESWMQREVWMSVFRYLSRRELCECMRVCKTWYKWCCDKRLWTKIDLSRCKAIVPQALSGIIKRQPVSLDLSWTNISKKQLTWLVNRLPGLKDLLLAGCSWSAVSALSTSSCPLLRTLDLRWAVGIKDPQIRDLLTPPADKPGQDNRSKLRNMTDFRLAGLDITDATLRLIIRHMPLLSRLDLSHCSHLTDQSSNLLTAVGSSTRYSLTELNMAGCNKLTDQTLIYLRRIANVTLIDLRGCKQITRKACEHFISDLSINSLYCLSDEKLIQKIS

[2] = target: T2, FLAG-tagged KDM2B-LF (full-length KDM2B lysine demethylase) (UniProt Q8NHM5); assay: as above
T2 sequence: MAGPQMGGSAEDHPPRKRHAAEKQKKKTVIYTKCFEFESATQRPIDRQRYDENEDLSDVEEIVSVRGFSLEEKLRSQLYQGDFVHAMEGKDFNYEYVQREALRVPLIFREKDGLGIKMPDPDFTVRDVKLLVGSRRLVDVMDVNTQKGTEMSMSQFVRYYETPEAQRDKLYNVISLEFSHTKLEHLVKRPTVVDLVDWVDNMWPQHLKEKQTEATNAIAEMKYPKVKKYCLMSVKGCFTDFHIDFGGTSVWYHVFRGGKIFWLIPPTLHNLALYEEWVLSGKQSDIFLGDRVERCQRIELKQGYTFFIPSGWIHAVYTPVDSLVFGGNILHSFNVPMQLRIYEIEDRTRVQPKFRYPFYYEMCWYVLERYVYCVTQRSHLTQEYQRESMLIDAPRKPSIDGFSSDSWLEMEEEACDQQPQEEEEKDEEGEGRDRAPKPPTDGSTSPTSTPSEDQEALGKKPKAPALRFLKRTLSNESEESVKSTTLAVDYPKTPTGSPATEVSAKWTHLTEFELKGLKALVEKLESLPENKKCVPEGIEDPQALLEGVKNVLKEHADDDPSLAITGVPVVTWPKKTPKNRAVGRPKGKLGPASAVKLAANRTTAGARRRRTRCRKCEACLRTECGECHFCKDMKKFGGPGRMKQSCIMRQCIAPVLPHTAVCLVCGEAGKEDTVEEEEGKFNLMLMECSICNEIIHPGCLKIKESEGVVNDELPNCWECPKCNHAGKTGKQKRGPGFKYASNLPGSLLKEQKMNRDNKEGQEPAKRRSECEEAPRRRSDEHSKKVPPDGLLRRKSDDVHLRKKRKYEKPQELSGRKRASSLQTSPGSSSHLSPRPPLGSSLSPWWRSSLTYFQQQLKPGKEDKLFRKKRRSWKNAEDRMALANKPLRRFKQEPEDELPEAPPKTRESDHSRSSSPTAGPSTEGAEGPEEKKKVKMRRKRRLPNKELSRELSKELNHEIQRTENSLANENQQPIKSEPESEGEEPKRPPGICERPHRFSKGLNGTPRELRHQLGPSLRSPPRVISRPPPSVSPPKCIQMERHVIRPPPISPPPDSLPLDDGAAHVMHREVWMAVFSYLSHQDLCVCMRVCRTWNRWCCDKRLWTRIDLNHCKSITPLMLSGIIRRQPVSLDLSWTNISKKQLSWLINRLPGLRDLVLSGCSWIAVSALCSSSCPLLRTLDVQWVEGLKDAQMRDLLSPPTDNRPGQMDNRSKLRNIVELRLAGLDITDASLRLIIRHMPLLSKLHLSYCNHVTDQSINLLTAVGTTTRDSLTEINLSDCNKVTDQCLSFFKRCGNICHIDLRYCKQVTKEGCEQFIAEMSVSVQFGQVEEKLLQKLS

- binding [1]: binds
- binding [2]: binds
B1: myc-tagged TCF7L1 (protein, UniProt Q9HCS4 1-588)
chain: MPQLGGGGGGGGGGSGGGGGSSAGAAGGGDDLGANDELIPFQDEGGEEQEPSSDSASAQRDLDEVKSSLVNESENQSSSSDSEAERRPQPVRDTFQKPRDYFAEVRRPQDSAFFKGPPYPGYPFLMIPDLSSPYLSNGPLSPGGARTYLQMKWPLLDVPSSATVKDTRSPSPAHLSNKVPVVQHPHHMHPLTPLITYSNDHFSPGSPPTHLSPEIDPKTGIPRPPHPSELSPYYPLSPGAVGQIPHPLGWLVPQQGQPMYSLPPGGFRHPYPALAMNASMSSLVSSRFSPHMVAPAHPGLPTSGIPHPAIVSPIVKQEPAPPSLSPAVSVKSPVTVKKEEEKKPHVKKPLNAFMLYMKEMRAKVVAECTLKESAAINQILGRKWHNLSREEQAKYYELARKERQLHSQLYPTWSARDNYGKKKKRKREKQLSQTQSQQQVQEAEGALASKSKKPCVQYLPPEKPCDSPASSHGSMLDSPATPSAALASPAAPAATHSEQAQPLSLTTKPETRAQLALHSAAFLSAKAAASSSGQMGSQPPLLSRPLPLGSMPTALLASPPSFPATLHAHQALPVLQAQPLSLVTKSAH
